Like-named read-outs stand apart in the source and are kept apart here. Results are given in words; binding and its absence hold for the method and conditions named. Binding seen in cells or lysates may run through a third protein. Some results given as binding are weak or reduced against the parent protein; the word gives no strength. Where a sequence is shown, tags or fusion partners need not be part of it.
What was measured:
HA-SFPQ (human) [1] = target: T1, HA-SFPQ (human) (UniProt P23246); assay: co-IP
T1 sequence: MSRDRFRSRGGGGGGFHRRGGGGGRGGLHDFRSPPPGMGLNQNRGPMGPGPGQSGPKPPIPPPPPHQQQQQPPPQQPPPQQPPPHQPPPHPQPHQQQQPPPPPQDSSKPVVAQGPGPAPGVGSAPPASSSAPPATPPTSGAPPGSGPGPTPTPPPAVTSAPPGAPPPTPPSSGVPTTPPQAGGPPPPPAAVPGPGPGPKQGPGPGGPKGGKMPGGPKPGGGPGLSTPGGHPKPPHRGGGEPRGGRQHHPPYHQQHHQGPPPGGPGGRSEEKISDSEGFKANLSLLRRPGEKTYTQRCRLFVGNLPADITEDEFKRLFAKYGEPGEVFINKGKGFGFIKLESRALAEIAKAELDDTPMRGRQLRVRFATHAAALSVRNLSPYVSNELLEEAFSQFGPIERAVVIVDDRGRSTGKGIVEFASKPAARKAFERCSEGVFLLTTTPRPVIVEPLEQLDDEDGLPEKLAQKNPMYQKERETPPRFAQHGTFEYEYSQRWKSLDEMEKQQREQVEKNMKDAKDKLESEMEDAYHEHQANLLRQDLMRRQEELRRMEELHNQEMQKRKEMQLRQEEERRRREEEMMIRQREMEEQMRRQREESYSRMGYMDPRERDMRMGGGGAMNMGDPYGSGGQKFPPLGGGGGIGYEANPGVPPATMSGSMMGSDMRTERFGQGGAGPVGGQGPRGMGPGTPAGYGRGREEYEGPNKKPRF

Sequences of proteins named here, by UniProt entry; tags and fusion partners are left off.
UniProt P33175, whole entry: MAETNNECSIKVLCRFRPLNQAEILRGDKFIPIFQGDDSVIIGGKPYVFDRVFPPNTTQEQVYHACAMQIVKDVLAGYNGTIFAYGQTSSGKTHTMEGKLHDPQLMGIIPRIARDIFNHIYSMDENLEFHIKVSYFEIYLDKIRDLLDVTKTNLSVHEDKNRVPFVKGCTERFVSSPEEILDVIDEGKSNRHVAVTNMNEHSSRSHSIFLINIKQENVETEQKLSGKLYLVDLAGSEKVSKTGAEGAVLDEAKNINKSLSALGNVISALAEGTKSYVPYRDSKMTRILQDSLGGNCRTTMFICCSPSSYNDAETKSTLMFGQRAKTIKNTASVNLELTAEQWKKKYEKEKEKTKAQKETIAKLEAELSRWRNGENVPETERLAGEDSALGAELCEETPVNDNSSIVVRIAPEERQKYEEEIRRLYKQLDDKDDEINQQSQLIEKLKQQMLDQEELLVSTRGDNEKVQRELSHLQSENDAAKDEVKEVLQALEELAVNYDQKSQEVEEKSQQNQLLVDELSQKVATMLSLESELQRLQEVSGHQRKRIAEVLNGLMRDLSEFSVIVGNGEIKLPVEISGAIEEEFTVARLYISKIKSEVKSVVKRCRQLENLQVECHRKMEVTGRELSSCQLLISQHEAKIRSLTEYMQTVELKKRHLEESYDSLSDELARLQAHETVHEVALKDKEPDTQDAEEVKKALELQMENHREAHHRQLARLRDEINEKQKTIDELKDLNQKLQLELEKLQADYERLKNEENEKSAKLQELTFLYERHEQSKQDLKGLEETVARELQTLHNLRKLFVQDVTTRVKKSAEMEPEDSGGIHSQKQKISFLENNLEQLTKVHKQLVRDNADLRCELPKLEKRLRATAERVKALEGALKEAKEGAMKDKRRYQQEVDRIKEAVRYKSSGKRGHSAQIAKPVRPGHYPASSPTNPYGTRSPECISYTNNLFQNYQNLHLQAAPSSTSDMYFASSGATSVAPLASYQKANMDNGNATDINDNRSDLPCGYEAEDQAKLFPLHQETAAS

HA-SFPQ (human) [2] = target: T1, HA-SFPQ (human); assay: co-IP; remark: listed apart in the source

binding (HA-SFPQ (human) [1]): binds
binding (HA-SFPQ (human) [2]): binds
Substance: FLAG-KIF5A WT (from UniProt P33175 1-1027)

From doi:10.1101/2020.02.02.931204
